At least one structure is not confirmed: it was looked up by name or label, or the drawing left a doubt.
Assays:
Assay type in all cases: in vivo, C57BL/6J mice
adiponectin mRNA = assay: Semiquantitative RT-PCR of adiponectin mRNA in liver tissue; conditions: high-fat diet mice, 10 mg/kg/day oral, week 12
[1] = tested on: fatty acid synthase (FAS) mRNA; assay: Semiquantitative RT-PCR of FAS mRNA in liver tissue; conditions: high-fat diet mice, 10 mg/kg/day oral, week 12, normalized by GAPDH
[2] = tested on: apolipoprotein C-III (apo C-III) mRNA; assay: Semiquantitative RT-PCR of apo C-III mRNA in liver tissue; conditions: high-fat diet mice, 10 mg/kg/day oral, week 12
phospho-AMPK (Thr172) = assay: Western immunoblotting of phospho-AMPK in liver and skeletal muscle; conditions: high-fat diet mice, 10 mg/kg/day oral, week 12
[3] = tested on: hepatocyte ballooning in liver tissue; assay: Histopathology of liver tissue (hepatocellular ballooning); conditions: high-fat diet mice, 10 mg/kg/day oral

CN(CCOc1ccc(CC2SC(=O)NC2=O)cc1)c1ccccn1 (stereo not drawn) [Rosi, rosiglitazone]
mRNA level of adiponectin in liver compared with HF group (adiponectin mRNA): increased
mRNA level of FAS in liver compared with HF group [1]: decreased
mRNA level of apo C-III in liver compared with HF group [2]: decreased
protein contents of hepatic phospho-AMPK compared with HF group (phospho-AMPK (Thr172); liver): increased
muscular protein contents of phospho-AMPK compared with HF group (phospho-AMPK (Thr172); skeletal muscle): increased
hepatocellular ballooning phenomenon in liver tissue vs HF group [3]: lower

From patent US9844543B2, “Method of treating or preventing hyperlipidemia with caffeamide derivatives” (priority 2015, dated 2017)
